Source: paper PMC13402591
No constants are given. Whether binding was seen depends on the method and setting.

Chains of the proteins cited; added tags and fusions are not shown.
UniProt Q6TQR6: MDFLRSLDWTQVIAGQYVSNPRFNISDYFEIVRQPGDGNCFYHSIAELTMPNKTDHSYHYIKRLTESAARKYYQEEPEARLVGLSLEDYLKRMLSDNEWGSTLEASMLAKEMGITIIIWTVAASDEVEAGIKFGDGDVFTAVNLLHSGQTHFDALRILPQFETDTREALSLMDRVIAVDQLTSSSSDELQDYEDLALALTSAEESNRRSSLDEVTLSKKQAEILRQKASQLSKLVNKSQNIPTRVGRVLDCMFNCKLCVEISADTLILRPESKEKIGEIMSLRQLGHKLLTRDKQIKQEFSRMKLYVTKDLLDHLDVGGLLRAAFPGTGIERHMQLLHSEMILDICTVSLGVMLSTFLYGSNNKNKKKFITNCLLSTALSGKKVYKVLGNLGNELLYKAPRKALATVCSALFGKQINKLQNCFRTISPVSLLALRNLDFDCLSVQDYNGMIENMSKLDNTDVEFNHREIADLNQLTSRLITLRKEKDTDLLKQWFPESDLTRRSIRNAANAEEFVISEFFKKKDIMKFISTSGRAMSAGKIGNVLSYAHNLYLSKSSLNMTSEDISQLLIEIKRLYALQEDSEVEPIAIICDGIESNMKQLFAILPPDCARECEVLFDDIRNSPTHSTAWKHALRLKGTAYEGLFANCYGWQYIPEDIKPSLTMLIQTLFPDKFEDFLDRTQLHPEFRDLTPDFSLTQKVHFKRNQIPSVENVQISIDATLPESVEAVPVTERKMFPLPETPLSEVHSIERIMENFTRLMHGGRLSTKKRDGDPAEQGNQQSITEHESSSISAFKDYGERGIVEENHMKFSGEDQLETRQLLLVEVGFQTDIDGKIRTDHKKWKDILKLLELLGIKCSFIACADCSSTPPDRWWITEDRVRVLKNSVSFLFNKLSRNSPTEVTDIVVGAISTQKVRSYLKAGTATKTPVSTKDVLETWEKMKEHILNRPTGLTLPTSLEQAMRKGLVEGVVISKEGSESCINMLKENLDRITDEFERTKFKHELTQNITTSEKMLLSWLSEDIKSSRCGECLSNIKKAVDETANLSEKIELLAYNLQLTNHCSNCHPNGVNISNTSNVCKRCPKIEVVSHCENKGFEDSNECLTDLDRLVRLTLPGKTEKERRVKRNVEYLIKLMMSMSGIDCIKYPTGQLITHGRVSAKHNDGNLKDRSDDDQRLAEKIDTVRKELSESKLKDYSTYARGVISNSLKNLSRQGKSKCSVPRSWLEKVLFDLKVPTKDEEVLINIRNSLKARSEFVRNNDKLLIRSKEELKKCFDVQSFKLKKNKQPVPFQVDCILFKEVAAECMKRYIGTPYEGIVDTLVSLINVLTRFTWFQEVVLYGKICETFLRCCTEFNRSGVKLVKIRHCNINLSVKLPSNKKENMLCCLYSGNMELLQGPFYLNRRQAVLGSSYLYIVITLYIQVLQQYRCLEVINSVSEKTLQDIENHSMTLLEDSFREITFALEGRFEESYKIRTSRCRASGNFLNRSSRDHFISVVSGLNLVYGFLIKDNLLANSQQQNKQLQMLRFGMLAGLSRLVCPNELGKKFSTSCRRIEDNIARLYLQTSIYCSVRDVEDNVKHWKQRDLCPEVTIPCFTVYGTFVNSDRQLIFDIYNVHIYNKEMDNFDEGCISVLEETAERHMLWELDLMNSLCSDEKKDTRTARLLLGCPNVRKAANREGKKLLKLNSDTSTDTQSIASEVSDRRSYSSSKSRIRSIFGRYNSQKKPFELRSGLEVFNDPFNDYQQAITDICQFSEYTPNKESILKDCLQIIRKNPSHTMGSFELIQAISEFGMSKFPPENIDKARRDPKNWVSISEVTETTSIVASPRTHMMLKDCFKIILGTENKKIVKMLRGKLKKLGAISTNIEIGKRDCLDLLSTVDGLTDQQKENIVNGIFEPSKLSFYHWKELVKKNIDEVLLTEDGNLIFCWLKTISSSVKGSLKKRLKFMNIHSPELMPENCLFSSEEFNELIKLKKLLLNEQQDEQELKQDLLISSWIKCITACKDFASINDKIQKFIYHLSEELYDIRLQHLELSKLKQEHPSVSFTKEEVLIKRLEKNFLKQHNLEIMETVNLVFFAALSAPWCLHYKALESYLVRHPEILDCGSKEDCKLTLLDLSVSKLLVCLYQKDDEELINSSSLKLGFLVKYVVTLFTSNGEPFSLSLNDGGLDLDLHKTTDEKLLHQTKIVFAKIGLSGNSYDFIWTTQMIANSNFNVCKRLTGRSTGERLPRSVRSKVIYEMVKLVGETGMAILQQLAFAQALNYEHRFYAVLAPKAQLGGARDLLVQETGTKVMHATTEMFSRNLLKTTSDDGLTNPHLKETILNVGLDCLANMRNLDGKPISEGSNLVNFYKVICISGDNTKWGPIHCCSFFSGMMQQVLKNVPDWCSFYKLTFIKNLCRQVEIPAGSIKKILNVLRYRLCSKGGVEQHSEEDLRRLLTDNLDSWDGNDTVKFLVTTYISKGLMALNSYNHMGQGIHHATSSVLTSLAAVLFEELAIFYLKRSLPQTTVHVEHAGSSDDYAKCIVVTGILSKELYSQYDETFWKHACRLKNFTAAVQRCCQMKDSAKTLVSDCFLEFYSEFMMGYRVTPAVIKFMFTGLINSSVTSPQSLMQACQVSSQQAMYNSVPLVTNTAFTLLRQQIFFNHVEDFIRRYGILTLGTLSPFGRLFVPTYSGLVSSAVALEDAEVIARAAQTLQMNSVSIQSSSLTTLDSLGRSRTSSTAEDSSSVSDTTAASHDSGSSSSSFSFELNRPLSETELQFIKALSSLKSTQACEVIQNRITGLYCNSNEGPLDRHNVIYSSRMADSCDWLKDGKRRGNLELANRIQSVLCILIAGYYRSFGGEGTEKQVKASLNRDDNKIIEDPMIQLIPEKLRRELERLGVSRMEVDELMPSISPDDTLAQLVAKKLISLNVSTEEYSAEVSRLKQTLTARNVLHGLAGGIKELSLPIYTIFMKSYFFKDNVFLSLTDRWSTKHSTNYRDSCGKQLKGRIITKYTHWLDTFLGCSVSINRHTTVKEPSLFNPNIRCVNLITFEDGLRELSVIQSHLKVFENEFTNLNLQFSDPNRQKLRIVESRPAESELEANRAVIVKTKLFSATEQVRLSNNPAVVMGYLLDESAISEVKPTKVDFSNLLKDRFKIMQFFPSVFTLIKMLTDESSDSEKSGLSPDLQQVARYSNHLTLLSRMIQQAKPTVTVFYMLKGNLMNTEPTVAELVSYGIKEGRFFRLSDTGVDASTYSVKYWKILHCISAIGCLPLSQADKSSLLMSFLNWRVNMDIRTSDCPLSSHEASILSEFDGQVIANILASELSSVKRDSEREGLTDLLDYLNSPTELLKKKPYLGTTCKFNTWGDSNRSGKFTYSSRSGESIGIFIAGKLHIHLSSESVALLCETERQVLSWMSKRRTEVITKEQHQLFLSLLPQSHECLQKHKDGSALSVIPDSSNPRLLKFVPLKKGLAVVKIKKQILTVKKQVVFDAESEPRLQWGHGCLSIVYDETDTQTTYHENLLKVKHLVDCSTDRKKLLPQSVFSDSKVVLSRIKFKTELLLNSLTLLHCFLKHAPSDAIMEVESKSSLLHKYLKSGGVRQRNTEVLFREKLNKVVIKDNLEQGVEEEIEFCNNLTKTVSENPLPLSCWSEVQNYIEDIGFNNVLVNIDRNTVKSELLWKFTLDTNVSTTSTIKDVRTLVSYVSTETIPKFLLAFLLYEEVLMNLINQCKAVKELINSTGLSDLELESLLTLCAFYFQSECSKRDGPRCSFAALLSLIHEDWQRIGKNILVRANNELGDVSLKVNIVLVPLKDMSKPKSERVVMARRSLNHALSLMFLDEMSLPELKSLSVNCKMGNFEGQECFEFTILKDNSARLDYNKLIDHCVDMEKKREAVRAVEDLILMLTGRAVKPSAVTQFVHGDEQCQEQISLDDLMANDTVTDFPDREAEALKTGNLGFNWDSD

Molecular target: Crimean-Congo haemorrhagic fever virus L-protein, full length, wild type (Orthonairovirus haemorrhagiae (Crimean-Congo haemorrhagic fever virus)) (UniProt Q6TQR6)
Test: mass photometry; both purified

Crimean-Congo haemorrhagic fever virus L-protein, full length, wild type (from UniProt Q6TQR6 1-3945) (enzyme)
binding: no binding (tested: 0.01 mg/ml)
